These are yes or no findings as the source states them, for the method shown. Some entries that bind do so weakly or less than the wild type.
Tests used:
[1] = target: CCT (chaperonin containing TCP-1) complex from mouse testis (mouse) (UniProt P11983); test: immobilised 15-mer peptide pins, mouse testis CCT, ELISA with MAb 91a, A410
[2] = target: CCT (chaperonin containing TCP-1) complex from mouse testis (mouse) (UniProt P11983); test: strength of CCT binding to immobilised peptides, ELISA with MAb 91a, A410
[3] = target: CCT (chaperonin containing TCP-1) complex from mouse testis (mouse) (UniProt P11983); test: peptide with CCT in buffered solution, non-denaturing gel, blot probed with streptavidin-HRP
[4] = target: CCT (chaperonin containing TCP-1) complex from mouse testis (mouse) (UniProt P11983); test: biotinylated peptide with CCT in solution, native PAGE, blot probed with streptavidin-HRP
[5] = target: CCT (chaperonin containing TCP-1) complex from mouse testis (mouse) (UniProt P11983); test: biotinylated peptide with CCT in solution, native PAGE blot

By UniProt entry, the sequences of proteins in these tests, tags left out. Where a name states a change or a piece, a line headed by the entry shows the natural chain unless it says otherwise.
UniProt P11983: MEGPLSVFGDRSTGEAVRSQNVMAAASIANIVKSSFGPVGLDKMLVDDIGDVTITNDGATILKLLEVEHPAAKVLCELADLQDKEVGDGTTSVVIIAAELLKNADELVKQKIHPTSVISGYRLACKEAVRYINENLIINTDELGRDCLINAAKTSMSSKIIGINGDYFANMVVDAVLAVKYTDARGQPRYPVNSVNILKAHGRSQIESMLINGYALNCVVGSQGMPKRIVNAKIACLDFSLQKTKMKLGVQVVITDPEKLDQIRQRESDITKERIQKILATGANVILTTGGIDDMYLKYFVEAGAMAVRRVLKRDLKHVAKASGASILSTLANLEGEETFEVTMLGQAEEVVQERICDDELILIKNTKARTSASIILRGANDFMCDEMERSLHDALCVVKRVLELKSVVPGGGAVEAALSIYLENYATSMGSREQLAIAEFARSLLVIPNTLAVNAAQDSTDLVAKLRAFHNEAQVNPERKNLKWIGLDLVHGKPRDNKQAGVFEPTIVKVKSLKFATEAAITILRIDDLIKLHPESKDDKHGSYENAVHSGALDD

With APRAVFPSIVGRPRH [mouse beta actin substrate peptide 6 (residues 26-40), immobilised] the binding [1] was “binds”.

FPSIVGRPRHQGVMV [mouse beta actin substrate peptide 7 (residues 31-45), immobilised] was tested, and the binding [1] was “binds”.

With GRPRHQGVMVGMGQK [mouse beta actin substrate peptide 8 (residues 36-50), immobilised] the binding [1] was “binds”.

With GGTTMYPGIADRMQK [mouse beta actin substrate peptide 61 (residues 301-315), immobilised] the binding [1] was “binds”.

With APRAVFPSIVGRPRH [reference peptide 1 (FIG. 10)] the binding [2] was “binds”.

In the case of FPSIVGRPRHQGVMV [reference peptide 2 (FIG. 10)], the binding [2] is reported as “binds”.

With GRPRHQGVMVGMGQK [reference peptide 3 (FIG. 10)] the binding [2] was “binds”.

In the case of GGTTMYPGIADRMQK [reference peptide 4 (FIG. 10)], the binding [2] is reported as “binds”.

PRHQGVMVGMGQKDS [reference peptide 5 (FIG. 10)] was tested, and the binding [2] was “binds”.

In the case of TFNTPAMYVAIQAVL [reference peptide 6 (FIG. 10)], the binding [2] is reported as “binds”.

With LPHAILRLDLAGRDL [reference peptide 7 (FIG. 10)] the binding [2] was “binds”.

LASLSTFQQMWISKQ [reference peptide 8 (FIG. 10)] was tested, and the binding [2] was “binds”.

DEAQSKRGILTLKYP [reference peptide 9 (FIG. 10)] was tested, and the binding [2] was “binds”.

IQAVLSLYASGRTTG [reference peptide 10 (FIG. 10)] was tested, and the binding [2] was “binds”.

For KILTERGYSFTTTAE [reference peptide 11 (FIG. 10)], the binding [2] was “binds”.

RGYSFTTTAEREIVR [reference peptide 12 (FIG. 10)] was tested, and the binding [2] was “binds”.

In the case of ASSSSLEKSYELPDG [reference peptide 13 (FIG. 10)], the binding [2] is reported as “binds”.

In the case of APSTMKIKIIAPPER [reference peptide 14 (FIG. 10)], the binding [2] is reported as “binds”.

APPERKYSVWIGGSI [reference peptide 15 (FIG. 10)] was tested, and the binding [2] was “binds”.

SGSGGRPRHQGVMVGMGQK (biotin group at the N-terminus; amide C-terminus) [biotinylated actin peptide number 8, biotin-SGSG-… (wild-type β-actin residues 36-50)] was tested, and the binding [3] was “binds” and the binding [4] was “binds”.

SGSGGAPRHQGVMVGMGQK (biotin group at the N-terminus; amide C-terminus) [peptide 8.2, biotin-SGSG-…] was tested, and the binding [5] was “binds” and the binding [4] was “binds”.

For SGSGGRARHQGVMVGMGQK (biotin group at the N-terminus; amide C-terminus) [peptide 8.3, biotin-SGSG-…], the binding [5] was “binds” and the binding [4] was “binds”.

Reference: US7018791B1, “Binding complexes” (Institute of Cancer Research: Royal Cancer Hospital, priority 1997, dated 2006)
